Results: PMC11977230, “Coevolving residues distant from the ligand binding site are involved in GAF domain function” (Communications Chemistry, 2025)
For part of its entries the source gives two or more results. This is not the full list of results. There may be further records. Values that stand side by side appear to be repeats (runs, samples, wells or individuals).

Experiments:
[1] = target: L267A mutant PDE5 GAFa domain biosensor (Homo sapiens, UniProt O76074, L267A); assay: BRET-based GAFa domain conformational biosensor, cGMP dose-response (L267A); conditions: L267A vs WT GAFa domain biosensor
Excerpt: (§1) Having observed alterations in the structural dynamics in the GAFa domain of PDE5 upon L267A and F295A mutations using MD simulations, we then proceeded to determine the impact of these mutations experimentally. […] (Fig. 4A). Broadly, these changes include a close juxtaposition of the sheet β3 and helix α4 leading to a “closing” of the cGMP binding site, an “inward” movement of sheet β1 and β2 towards the cGMP binding site and an “outward” movement of the loop β2/β3 (Fig. 4A, left panel). Additionally, cGMP binding is associated with a close juxtapositioning of helices α2 and α5 at the N- and C-termini of the GAFa domain, likely associated with the transduction of the allosteric signal from the GAFa domain to the catalytic domain in PDE5 (Fig. 4A, right panel). We decided to take advantage of the latter to monitor cGMP-binding induced conformational change in the GAFa domain through an increase in the BRET efficiency of the GAFa domain biosensor that we have described previously[24] (Fig. 4B). BRET is a biophysical technique that involves resonance energy transfer between a bioluminescent donor and a fluorescent acceptor, the extent of which is dependent on the spectral overlap, distance, and relative orientation between the two reporters. […]

[2] = target: F295A mutant PDE5 GAFa domain biosensor (Homo sapiens, UniProt O76074, F295A); assay: BRET-based GAFa domain conformational biosensor, cGMP dose-response (F295A); conditions: F295A vs WT GAFa domain biosensor
Excerpt: as §1

## Nc1nc2c(ncn2[C@@H]2O[C@@H]3COP(=O)(O)O[C@H]3[C@H]2O)c(=O)[nH]1 [cGMP]
[1]
  fold higher EC50 than the WT protein: ~ 5800 fold and more than 5000 fold
[2]
  fold higher EC50 than the WT protein: 10,000 fold and more than 10000 fold
